Measurements: publication PMC5824958

T1: BRI2 (integral membrane protein 2B) (rat (endogenous in brain)) (UniProt Q5XIE8)
T1 sequence: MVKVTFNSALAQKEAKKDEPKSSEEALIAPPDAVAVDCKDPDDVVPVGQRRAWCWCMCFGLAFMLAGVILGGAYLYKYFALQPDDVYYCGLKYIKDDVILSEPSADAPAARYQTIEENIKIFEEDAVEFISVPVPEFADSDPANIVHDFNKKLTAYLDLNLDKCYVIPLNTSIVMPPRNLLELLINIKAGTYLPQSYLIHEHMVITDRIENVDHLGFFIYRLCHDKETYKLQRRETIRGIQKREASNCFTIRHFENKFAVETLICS


Biological target: T1, BRI2 (integral membrane protein 2B) (rat (endogenous in brain))
Experiment: affinity purification with mass spectrometry; mouse anti-BRI2 antibody (N-terminal region) on Dynabeads Protein G; pre-cleared rat cerebral cortex, hippocampus and cerebellum lysates (50 mM Tris-HCl pH 8.0, 120 mM NaCl, 4% CHAPS), overnight at 4 °C; co-precipitated proteins identified by nano-HPLC-MS/MS; hits absent from the two mock IPs or with a PSM ratio >= 2.0

| Binder | binding |
| --- | --- |
| Brain acid soluble protein 1 (protein, UniProt Q05175 1-220) MGSKLSKKKKGYNVNDEKAKDKDKKAEGAGTEEEGTQKESEPQAAADATEVKESAEEKPKDAADGEAKAEEKEADKAAAKEEAPKAEPEKSEGAAEEQPEPAPAPEQEAAAPGPAAGGEAPKAGEASAESTGAADGAPQEEGEAKKTEAPAAGPEAKSDAAPAASDSKPSTEPAPSSKETPAASEAPSSAAKAPAPAAPAAEPQAEAPVASSEQSVAVKE | binds |
| SRC kinase signaling inhibitor 1 (protein, UniProt Q9QXY2 1-1197) MQPWQCLRRFALAWWERTAEGRARSPREEVGPRDPGGRGEPDPERSSPPMLSADDAEYPREYRTLGGGGSGGSGGRRFSNVGLVHTSERRHTVIAAQSLEALSGLQKADADRKRDAFMDHLKSKYPQHALALRGQQDRMREQQPNYWSFKTRSSRHTQGAQPGLADQAAKLSYASAESLETMSEAELPLGFSRMNRFRQSLPLSRSASQTKLRSPGVLFLQFGEETRRVHITHEVSSLDTLHALIAHMFPQKLTMGMLKSPNTAILIKDEARNVFYELEDVRDIQDRSIIKIYRKEPLYAAFPGSHLTNGDLRREMVYASRESSPTRRLNNLSPASHLASSSPPPGLPSGLPSGLPSGSPSRSRLSYAGGRPPSYAGSPVHHAAERLGGAPTSQGVSPSPSAILERRDVKPDEDLAGKAGGMVLVKGEGLYADPYGLLHEGRLSLAAAAGDPFAYPGAGGLYKRGSVRSLSTYSAAALQSDLEDSLYKAGAGGPLYGDGYGFRLPPSSPQKLADVSAPSGGPPPPHSPYSGPPSRGSPVRQSFRKDSGSSSVFAESPGGKARSTGASTAGAPPSELFPGPGERSLVGFGPPVPAKDTETRERMEAMEKQIASLTGLVQSALLRGSEPETPSEKIEGSNGAATPSAPVCGSGSRSSGATPVSGPPPPAVSSTPAGQPTAVSRLQMQMHLRGLQNSASDLRGQLQQLRKLQLQNQESVRALLKRTEAELSMRVSEAARRQEDPLQRQRTLVEEERLRYLNDEELITQQLNDLEKSVEKIQRDVAHNHRLVPGPELEEKALVLKQLGETLTELKAHFPGLQSKMRVVLRVEVEAVKFLKEEPQRLDGLLKRCRVVTDTLAQIRRQVDEGVWPPPNNLLNQSPKKVAAETDFSKGLDFEIPPPSPPLNLHELSGPAEGTPLTPKSGNPTKGLDAPSKRNMDKAVSVEAAERDWEEKRAALTQYSAKDINRLLEETQAELLKAIPDLDCASKTHPGPTPTPDHKPPKAPHGQKAAPRTEPSGRRGSDELTVPRYRTEKPSKSPPPPPPRRSFPSSHGLTTTRTGEVVVTSKKDSVFIKKAESEELEIQKPQVKLRRAVSEVVRPASTPPIMASAIKDEDDEERIIAELESGGGSVPPMKVVTPGASRLKAAQGPAGSPDKGKHGKQRTEYMRIQAQQQVRVGYQAPRPLEGCTPRLCYMPLS | binds |

The remaining lines, values ahead:

| binding | Binder |
| --- | --- |
| binds | SH3-containing GRB2-like protein 3-interacting protein 1 (protein, UniProt P0DJJ3 1-827) MMEGLKKRTRKAFGIRKKEKDTDSTGSPDRDGMQPSPHEPPYHSKAECAREGGKKASKKSNGAPNGFYAEIDWERYNSPELDEEGYSIRPEEPGSTKGKHFYSSSESEEEEESHKKFNIKIKPLQSKDVLKNAATVDELKASIGNIALSPSPVRKSPRRSPGAIKRNLSSEEVARPRRSTPTPELTSKKPLDDTLALAPLFGPPLESAFDEQKTEVLLDQPEIWGSGQPINPSMESPKLARPFPTGTPPPLPPKAVPATPPRTGSPLTVATGNDQAATEAKIEKLPSISDLDSIFGPVLSPKSVAVNTEEKWVHFSDASPEHVTPELTPREKVVTPPAASDIPADSPAPGPPGPPGSAGPPGPPGPRHVPSPLNLEEVQKKVAEQTFIKDDYLETLSSPKECGLGQRATPPPPPPPTYRTVVSSPGPGSGSGTGTASGASSPARPATPLVPCSSTTPPPPPPRPPSRPKLPPGKPGVGDVSRPFSPPIHSSSPPPIAPLARAESTSSISSTNSLSAATTPTVENEQPSLVWFDRGKFYLTFEGSSRGPSPLTMGAQDTLPVAAAFTETVNAYFKGADPSKCIVKITGEMVLSFPAGITRHFANNPSPAALTFRVINSSRLEHVLPNPQLLCCDNTQNDANTKEFWVNMPNLMTHLKKVSEQKPQATYYNVDMLKYQVSAQGIQSTPLNLAVNWRCEPGSTDLRIDYKYNTDAMTTAVALNNVQFLVPIDGGVTKLQAVLPPAVWNAEQQRILWKIPDISQKSENGGVGSLLARFQLSEGPSKPSPLVVQFTSEGSTLSGCDIELVGAGYRFSLIKKRFAAGKYLADN |
| binds | Sodium- and chloride-dependent GABA transporter 3 (protein, UniProt P31647 1-627) MTAEQALPLGNGKAAEEARGSEALGGGGGGAAGTREARDKAVHERGHWNNKVEFVLSVAGEIIGLGNVWRFPYLCYKNGGGAFLIPYVVFFICCGIPVFFLETALGQFTSEGGITCWRRVCPLFEGIGYATQVIEAHLNVYYIIILAWAIFYLSNCFTTELPWATCGHEWNTEKCVEFQKLNFSNYSHVSLQNATSPVMEFWERRVLAISDGIEHIGNLRWELALCLLAAWTICYFCIWKGTKSTGKVVYVTATFPYIMLLILLIRGVTLPGASEGIKFYLYPDLSRLSDPQVWVDAGTQIFFSYAICLGCLTALGSYNNYNNNCYRDCIMLCCLNSGTSFVAGFAIFSVLGFMAYEQGVPIAEVAESGPGLAFIAYPKAVTMMPLSPLWATLFFMMLIFLGLDSQFVCVESLVTAVVDMYPKVFRRGYRRELLILALSIVSYFLGLVMLTEGGMYIFQLFDSYAASGMCLLFVAIFECVCIGWVYGSNRFYDNIEDMIGYRPLSLIKWCWKVVTPGICAGIFIFFLVKYKPLKYNNVYTYPAWGYGIGWLMALSSMLCIPLWIFIKLWKTEGTLPEKLQKLTVPSADLKMRGKLGASPRMVTVNDCEAKVKGDGTISAITEKETHF |
| binds | Solute carrier family 12 member 5 (protein, UniProt Q63633 1-1139) MSRRFTVTSLPPAASAASADPESRRHSVADPRRLPREDVKGDGNPKESSPFINSTDTEKGREYDGRNMALFEEEMDTSPMVSSLLSGLANYTNLPQGSKEHEEAENNEGGKKKPVQAPRMGTFMGVYLPCLQNIFGVILFLRLTWVVGIAGIMESFCMVFICCSCTMLTAISMSAIATNGVVPAGGSYYMISRSLGPEFGGAVGLCFYLGTTFAGAMYILGTIEILLAYLFPAMAIFKAEDASGEAAAMLNNMRVYGTCVLTCMATVVFVGVKYVNKFALVFLGCVILSILAIYAGVIKSAFDPPNFPICLLGNRTLSRHGFDVCAKLAWEGNETVTTRLWGLFCSSRLLNATCDEYFTRNNVTEIQGIPGAASGLIKENLWSSYLTKGVIVERRGMPSVGLADGTPVDMDHPYVFSDMTSYFTLLVGIYFPSVTGIMAGSNRSGDLRDAQKSIPTGTILAIATTSAVYISSVVLFGACIEGVVLRDKFGEAVNGNLVVGTLAWPSPWVIVIGSFFSTCGAGLQSLTGAPRLLQAISRDGIVPFLQVFGHGKANGEPTWALLLTACICEIGILIASLDEVAPILSMFFLMCYMFVNLACAVQTLLRTPNWRPRFRYYHWTLSFLGMSLCLALMFICSWYYALVAMLIAGLIYKYIEYRGAEKEWGDGIRGLSLSAARYALLRLEEGPPHTKNWRPQLLVLVRVDQDQNVVHPQLLSLTSQLKAGKGLTIVGSVLEGTFLDNHPQAQRAEESIRRLMEAEKVKGFCQVVISSNLRDGVSHLIQSGGLGGLQHNTVLVGWPRNWRQKEDHQTWRNFIELVRETTAGHLALLVTKNVSMFPGNPERFSEGSIDVWWIVHDGGMLMLLPFLLRHHKVWRKCKMRIFTVAQMDDNSIQMKKDLTTFLYHLRITAEVEVVEMHESDISAYTYEKTLVMEQRSQILKQMHLTKNEREREIQSITDESRGSIRRKNPANTRLRLNVPEETACDNEEKPEEEVQLIHDQSAPSCPSSSPSPGEEPEGEGETDPEKVHLTWTKDKSAAQKNKGPSPVSSEGIKDFFSMKPEWENLNQSNVRRMHTAVRLNEVIVNKSRDAKLVLLNMPGPPRNRNGDENYMEFLEVLTEQLDRVMLVRGGGREVITIYS |

Results are given in words; binding and its absence hold for the method and conditions named. Binding seen in cells or lysates may run through a third protein. Here binding means that the protein was enriched with, or labelled near, the bait; the list need not be complete.
